Measurements: article PMC7892437 (Frontiers in Pharmacology, 2021)
Like-named read-outs stand apart in the source and are kept apart here.

What was measured:
[1] = system: SARS-CoV-2 BetaCoV/Shenzhen/SZTH-003/2020 strain; assay type: cell-based
[2] = system: VSV-SARS-CoV-2-Sdel18 pseudovirus; assay type: cell-based

Q: What does the source list for `CN1C[C@@H]2c3ccccc3Oc3ccc(Cl)cc3[C@H]2C1.Cl` (racemic) [Asenapine (hydrochloride)]?
A: cytotoxicity compared with the other selected drugs (BHK21-hACE2 cells): lowest cytotoxicity; IC50 [1]: 16.7 µM; inhibitory effect relative to Chloroquine diphosphate [1]: slightly less effective; IC50 ([2]; read-out: Co-treatment IC50): 28.1 µM; IC50 ([2]; read-out: IC50): 12.9 µM; IC50 ([2]; read-out: Pre-treatment IC50): 17.7 µM
